The list shows only some results of the screen, not a fair sample: it gathers some chemical classes. Not every dose and run of a compound is shown. T/C gives the treated animals as a percentage of the vehicle group. For survival time, this PubChem deposit counts one and a half times the control or more as active, and values a quarter to a half above the control carry no call in these data; other NCI protocols may use other cut-offs. Some entries show no survivor count and are marked so; the dose need not have been tolerated. Schedules are NCI's codes, read here as Q, the interval in days (D) or hours (H), X, the number of doses.
Tested on: BDF1 mice, Lymphoma 8 ip, survival T/C
Assay: NCI In Vivo Anticancer Drug Screen. Data for tumor model Lymphoma 8 (intraperitoneal) in B6D2F1 (BDF1) mice
Details: T/C endpoint: survival time, mean or median, schedule: Q01DX010 (ip), vehicle: saline, higher T/C = longer survival
Protocol: The antitumor activity of compounds was measured in mice bearing transplantable tumors. Survival or tumor size were measured and the results are expressed as the measurement made in the treated group (T) divided by the measurement made in the vehicle treated control group (C). The tumor model used in this assay is Lymphoma 8 (intraperitoneal) in B6D2F1 (BDF1) mice

## CN(CCCl)CCCl
dose: 0.13 mg/kg/injection
  T/C: 140 % of control [survivor count not shown]
dose: 0.25 mg/kg/injection
  T/C: 155 % of control [survivor count not shown]
dose: 0.5 mg/kg/injection
  T/C: 190 % of control [survivor count not shown]

Reference: PubChem BioAssay AID242 (DTP/NCI, 2004)
